The assay addresses staphylococcal nuclease domain-containing protein 1 (SND1), endogenous (human (endogenous in A549^ACE2)) (UniProt Q7KZF4). In words: affinity purification with mass spectrometry.

By UniProt entry, the sequences of proteins in these tests, tags left out. Residues count along the entry.
UniProt Q7KZF4: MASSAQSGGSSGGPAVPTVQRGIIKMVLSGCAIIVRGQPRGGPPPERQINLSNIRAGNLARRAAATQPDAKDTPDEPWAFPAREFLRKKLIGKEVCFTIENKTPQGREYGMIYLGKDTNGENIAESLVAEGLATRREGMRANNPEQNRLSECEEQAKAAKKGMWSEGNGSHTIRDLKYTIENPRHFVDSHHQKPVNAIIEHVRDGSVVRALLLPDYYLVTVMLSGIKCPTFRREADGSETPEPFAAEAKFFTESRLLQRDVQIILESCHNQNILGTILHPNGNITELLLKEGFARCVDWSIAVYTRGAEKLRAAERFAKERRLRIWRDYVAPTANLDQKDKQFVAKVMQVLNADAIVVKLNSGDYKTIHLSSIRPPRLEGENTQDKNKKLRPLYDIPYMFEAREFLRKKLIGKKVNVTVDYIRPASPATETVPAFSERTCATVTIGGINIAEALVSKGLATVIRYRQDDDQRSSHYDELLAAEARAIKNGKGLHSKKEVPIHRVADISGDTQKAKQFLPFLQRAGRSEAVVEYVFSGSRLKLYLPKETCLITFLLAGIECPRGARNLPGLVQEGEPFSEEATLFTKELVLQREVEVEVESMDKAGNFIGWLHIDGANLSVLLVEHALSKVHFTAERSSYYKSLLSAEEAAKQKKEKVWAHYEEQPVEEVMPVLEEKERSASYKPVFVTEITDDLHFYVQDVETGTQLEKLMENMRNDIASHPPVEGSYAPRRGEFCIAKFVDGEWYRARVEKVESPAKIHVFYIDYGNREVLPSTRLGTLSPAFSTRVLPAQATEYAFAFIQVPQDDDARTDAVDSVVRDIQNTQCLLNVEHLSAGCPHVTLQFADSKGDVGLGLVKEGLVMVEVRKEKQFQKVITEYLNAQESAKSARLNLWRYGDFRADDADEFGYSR
UniProt Q8NE71: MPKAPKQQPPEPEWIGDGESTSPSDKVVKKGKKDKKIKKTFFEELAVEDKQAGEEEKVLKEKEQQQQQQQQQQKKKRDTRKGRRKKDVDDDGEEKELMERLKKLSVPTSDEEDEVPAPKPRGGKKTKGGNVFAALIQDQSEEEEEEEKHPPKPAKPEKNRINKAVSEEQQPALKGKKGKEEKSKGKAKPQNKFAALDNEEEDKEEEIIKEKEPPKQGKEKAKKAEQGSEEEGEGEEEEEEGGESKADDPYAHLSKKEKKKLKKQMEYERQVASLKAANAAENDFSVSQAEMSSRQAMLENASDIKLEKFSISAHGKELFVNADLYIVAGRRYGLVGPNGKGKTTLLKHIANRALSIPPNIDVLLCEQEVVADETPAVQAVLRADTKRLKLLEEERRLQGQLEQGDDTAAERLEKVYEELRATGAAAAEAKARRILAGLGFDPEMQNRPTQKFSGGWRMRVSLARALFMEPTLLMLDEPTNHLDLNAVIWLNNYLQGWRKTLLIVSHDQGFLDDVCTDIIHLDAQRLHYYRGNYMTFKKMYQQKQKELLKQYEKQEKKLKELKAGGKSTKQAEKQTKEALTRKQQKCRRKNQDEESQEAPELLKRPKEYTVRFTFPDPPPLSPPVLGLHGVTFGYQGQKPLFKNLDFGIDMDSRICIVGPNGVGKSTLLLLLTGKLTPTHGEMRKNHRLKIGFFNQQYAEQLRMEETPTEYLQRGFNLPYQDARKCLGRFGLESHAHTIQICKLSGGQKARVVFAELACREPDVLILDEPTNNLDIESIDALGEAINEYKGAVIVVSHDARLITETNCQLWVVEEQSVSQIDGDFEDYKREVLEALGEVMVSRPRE
UniProt P17302: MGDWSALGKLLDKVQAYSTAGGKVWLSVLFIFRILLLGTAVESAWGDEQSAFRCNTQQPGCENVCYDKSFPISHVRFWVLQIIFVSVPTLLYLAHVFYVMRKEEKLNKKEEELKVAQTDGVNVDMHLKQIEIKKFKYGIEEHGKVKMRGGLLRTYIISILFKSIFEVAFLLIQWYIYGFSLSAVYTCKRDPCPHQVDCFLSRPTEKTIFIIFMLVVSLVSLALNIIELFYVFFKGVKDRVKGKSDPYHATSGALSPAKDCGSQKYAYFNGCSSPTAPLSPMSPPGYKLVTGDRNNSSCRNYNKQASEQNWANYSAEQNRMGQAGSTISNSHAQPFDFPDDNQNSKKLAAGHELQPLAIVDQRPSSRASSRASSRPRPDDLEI
UniProt Q9UI09: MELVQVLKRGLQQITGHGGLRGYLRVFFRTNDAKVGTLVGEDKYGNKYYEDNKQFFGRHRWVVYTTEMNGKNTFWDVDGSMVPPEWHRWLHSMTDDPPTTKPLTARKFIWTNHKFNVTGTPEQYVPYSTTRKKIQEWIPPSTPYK
UniProt O14786, residues 22-923: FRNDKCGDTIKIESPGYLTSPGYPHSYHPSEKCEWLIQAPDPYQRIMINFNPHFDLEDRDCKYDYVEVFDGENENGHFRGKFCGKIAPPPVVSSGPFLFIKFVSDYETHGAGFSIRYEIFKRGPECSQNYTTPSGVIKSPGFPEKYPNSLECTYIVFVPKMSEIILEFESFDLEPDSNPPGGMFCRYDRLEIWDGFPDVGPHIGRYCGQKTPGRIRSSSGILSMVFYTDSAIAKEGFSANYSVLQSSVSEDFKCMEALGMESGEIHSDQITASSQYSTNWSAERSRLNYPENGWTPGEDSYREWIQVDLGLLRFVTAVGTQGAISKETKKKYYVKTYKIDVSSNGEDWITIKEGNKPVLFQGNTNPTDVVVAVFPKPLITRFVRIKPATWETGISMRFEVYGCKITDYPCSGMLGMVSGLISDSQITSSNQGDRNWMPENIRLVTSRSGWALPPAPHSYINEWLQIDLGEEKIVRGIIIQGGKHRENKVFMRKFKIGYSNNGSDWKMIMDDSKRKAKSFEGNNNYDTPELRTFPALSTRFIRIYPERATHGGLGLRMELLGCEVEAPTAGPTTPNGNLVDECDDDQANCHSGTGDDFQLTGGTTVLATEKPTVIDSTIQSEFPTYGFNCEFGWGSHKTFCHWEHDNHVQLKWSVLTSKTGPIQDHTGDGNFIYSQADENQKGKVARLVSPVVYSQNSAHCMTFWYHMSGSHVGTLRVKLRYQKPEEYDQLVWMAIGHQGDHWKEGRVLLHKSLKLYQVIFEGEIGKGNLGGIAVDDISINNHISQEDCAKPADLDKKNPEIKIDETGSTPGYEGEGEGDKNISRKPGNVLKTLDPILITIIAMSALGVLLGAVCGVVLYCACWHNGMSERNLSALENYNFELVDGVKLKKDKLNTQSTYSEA
UniProt Q9H4L5: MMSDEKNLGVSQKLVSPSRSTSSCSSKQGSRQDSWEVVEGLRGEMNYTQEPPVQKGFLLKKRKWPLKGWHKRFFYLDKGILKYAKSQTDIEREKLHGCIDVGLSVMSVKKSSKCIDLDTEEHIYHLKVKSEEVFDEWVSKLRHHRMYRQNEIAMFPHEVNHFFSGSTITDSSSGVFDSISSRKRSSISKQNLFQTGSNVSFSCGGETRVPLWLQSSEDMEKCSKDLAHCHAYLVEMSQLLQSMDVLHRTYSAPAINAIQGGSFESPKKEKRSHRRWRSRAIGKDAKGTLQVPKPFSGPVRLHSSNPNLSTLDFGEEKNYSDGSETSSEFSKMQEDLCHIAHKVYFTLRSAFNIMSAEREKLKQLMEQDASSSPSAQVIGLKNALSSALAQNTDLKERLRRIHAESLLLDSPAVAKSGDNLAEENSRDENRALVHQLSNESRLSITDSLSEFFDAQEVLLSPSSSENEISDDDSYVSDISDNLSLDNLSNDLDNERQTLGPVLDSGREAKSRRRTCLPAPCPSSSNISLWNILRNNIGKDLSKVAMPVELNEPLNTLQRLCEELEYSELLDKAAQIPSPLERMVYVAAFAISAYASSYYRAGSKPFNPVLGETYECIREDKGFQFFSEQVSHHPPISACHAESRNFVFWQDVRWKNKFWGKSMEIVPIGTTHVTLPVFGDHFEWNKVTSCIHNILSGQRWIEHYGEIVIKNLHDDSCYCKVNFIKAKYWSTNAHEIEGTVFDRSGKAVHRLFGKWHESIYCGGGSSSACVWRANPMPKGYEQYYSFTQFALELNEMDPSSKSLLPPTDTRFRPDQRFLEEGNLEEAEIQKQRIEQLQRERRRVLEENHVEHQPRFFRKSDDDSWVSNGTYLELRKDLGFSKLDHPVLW

These are yes or no findings as the source states them, for the method shown. In cells and extracts the contact can be indirect. These calls come from enrichment with a bait or labelling near it, and not all partners need be listed.

Results on eight substances are retold here after article PMC10617981.

Regarding ABCF1 (from UniProt Q8NE71 1-845), the binding result is given as “binds”.
To GJA1 (from UniProt P17302 1-382) belongs “binds”; to NDUFA12 (from UniProt Q9UI09 1-145), “binds”; to NRP1 (from UniProt O14786 22-923), “binds”.
To OSBPL3 (from UniProt Q9H4L5 1-887) belongs “binds”.
To “SARS-CoV-2 NSP3 (from UniProt P0DTD1 819-2763)” belongs “binds”; to “SARS-CoV-2 NSP4 (from UniProt P0DTD1 2764-3263)”, “binds”.
With “SARS-CoV-2 NSP9 made during infection (from UniProt P0DTD1 4141-4253)”, the binding entry is reported as “binds”.
